Laboratory results reported in patent US20150291625A1 (PFIZER INC., priority 2012, published 2015).
Some of these results come from one statement about several compounds together.

Chains of the proteins cited; added tags and fusions are not shown. Lines headed by an entry give the natural chain unless they say otherwise; changes in a name come on top.
UniProt P21728, whole entry: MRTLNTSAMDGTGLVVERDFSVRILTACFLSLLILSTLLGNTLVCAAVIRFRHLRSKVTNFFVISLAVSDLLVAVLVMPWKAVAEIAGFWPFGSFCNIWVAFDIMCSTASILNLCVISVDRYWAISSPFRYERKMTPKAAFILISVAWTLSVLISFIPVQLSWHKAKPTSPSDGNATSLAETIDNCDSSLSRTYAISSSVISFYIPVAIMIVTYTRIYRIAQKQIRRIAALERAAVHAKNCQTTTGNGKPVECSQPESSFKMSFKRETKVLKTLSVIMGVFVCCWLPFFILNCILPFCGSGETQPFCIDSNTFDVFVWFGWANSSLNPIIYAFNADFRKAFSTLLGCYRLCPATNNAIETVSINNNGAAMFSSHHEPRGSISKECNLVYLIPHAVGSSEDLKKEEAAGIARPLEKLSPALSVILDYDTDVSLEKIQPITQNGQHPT

How the values were obtained:
[1] = test system: endogenous D1-like receptors; experiment: cAMP and receptor desensitization assay in primary striatal neurons; conditions: 'about'
[2] = biological target: human Dopamine D1(D1A) receptors and human β-arrestin2-GFP (Homo sapiens, UniProt P21728); experiment: β-Arrestin membrane recruitment assay, TIRF microscopy, U2OS cells; conditions: 1 μM test compound

Cc1ncnc(C)c1-c1ccc(Oc2nccc3occc23)cc1C#N [Example 9, 2-(4,6-Dimethylpyrimidin-5-yl)-5-(furo[3,2-c]pyridin-4-yloxy)benzonitrile]
desensitization of D1R, decrease v. Control [1]: less than 25%
β-arrestin-GFP recruited to the plasma membrane relative to Dopamine [2]: less than 60%
